Data on one molecule can be found in patent publication US7029871.

Chains of the proteins cited; added tags and fusions are not shown. Residues count along the entry.
UniProt P19438, residues 30-455: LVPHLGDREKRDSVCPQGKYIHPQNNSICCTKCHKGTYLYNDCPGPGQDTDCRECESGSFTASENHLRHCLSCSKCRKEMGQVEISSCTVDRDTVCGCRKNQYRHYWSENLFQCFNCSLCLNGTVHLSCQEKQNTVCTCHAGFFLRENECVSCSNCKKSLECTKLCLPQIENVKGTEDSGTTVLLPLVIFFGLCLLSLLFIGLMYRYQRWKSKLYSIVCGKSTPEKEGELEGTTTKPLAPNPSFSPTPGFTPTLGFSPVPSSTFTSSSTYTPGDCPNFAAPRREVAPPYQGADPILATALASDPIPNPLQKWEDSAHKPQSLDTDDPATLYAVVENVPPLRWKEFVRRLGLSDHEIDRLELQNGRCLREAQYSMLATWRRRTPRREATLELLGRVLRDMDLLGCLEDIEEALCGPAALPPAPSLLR

For this assay, the target named is TNF R1 (UniProt P19438). Kind of assay: complex found in TNF-stimulated cells; method not described.

These are yes or no findings as the source states them, for the method shown. Some results given as binding are weak or reduced against the parent protein; the word gives no strength.

B1: TNF-R associated death domain protein (TRADD) (protein, UniProt Q15628 1-312, looked up)
chain: MAAGQNGHEEWVGSAYLFVESSLDKVVLSDAYAHPQQKVAVYRALQAALAESGGSPDVLQMLKIHRSDPQLIVQLRFCGRQPCGRFLRAYREGALRAALQRSLAAALAQHSVPLQLELRAGAERLDALLADEERCLSCILAQQPDRLRDEELAELEDALRNLKCGSGARGGDGEVASAPLQPPVPSLSEVKPPPPPPPAQTFLFQGQPVVNRPLSLKDQQTFARSVGLKWRKVGRSLQRGCRALRDPALDSLAYEYEREGLYEQAFQLLRRFVQAEGRRATLQRLVEALEENELTSLAEDLLGLTDPNGGLA
In the case of B1, the binding entry is reported as “binds”.
